Measured values published in the supplement of paper PMC10338343.
± gives the standard deviation. This is a selection; strong and weak results do not stand in their true shares. The uncertainty is large for many entries.

test system: MIWI (PIWIL1) piRISC loaded with Kctd7 piRNA (30 nt); test: pre-steady-state target cleavage rate (min^-1); MIWI and MILI are mouse PIWI proteins and EfPiwi is from a freshwater sponge; tags in brackets are library labels; higher = faster piRNA-guided slicing of the target; settings: guide: Kctd7 piRNA 5'p-UGUUAAUCUCUCAGAGAAGGUGACAGUGAU; auxiliary factor: 500 nM mouse GTSF1
In short: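 Three pooled Cleave-'n-Seq trials supplied the data, with k3 capped at 0.0001 min^-1. In each, […] transcribed, DNA-blocked target RNA library and 1 nM active affinity-purified piRISC with one synthetic guide reacted in HEPES–potassium acetate buffer at 33 °C for 0–8 or 0–960 min, with or without 500 nM GTSF1 partner protein. Uncleaved targets were sequenced and normalised to depth and to weakly complementary targets. A burst-and-steady-state fit provided the pre-steady-state cleavage rate.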
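Note: 1 nM active piRISC with 0.1 nM target library at 33 °C single turnover.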

Sequence	pre-steady-state target cleavage rate
UACACUGAGACCUUCUCUGAGAGAUAUUGA	0.0195 ± 0.0074
UAGUGACAGUGGAACUCUGAGAGAUUAAUA	0.000426 ± 0.027
UAGUGACAGACCUUCUCUGUCAGAUUUUGA	0.00158 ± 0.0072
UAGUGACAGUCCUUCUCUGACUGAUUAACA	0.000327 ± 0.0094
UAGUGACAGUCCUUCUGACUCUCUAAUUGA [g15:g20:cont:t1A]	0.000629 ± 0.012
UUCACUGUCACCUUCUCACUCUCUAAUUGA [g14:g29:cont:t1A]	0.00129 ± 0.0072
UAGUGACACACCUUCUCUGAGUCAUAUUGA	0.000121 ± 0.021
UAGUGAGUCACCUUCUCUGAGUCUUAUUGA	0.00157 ± 0.0065
UAGUGACAGUGCUUCUCAGAGAGAUUAUCA	0.00136 ± 0.0048
UAGUCUUUCACCUUCUCUGAGAGAUUAACA	0.265 ± 0.015
UAGUGACAGACCUUCUCUGAGACAUUAACA	0.039 ± 0.0076
UAGUCUGUCACCUCUCUGAGAGAUUAACA	0.447 ± 0.048
UAGUGACUCACCUUCUCUGACUCAUUUUGA	0.000535 ± 0.014
UAGUGACAGUGGAAGACUGAGAGUUUAACA	0.000195 ± 0.016
UAGUGACAGACCUUCUCGAGAGAUUAACA	0.00325 ± 0.0046
UAGUGACAGUGGAAGAGACAGAGAUUAAGA	0.000114 ± 0.042
UAGUGACAGUCGAACUCUGAGAGAUUAACA	0.000125 ± 0.035
UACACUGUCACCUUCUCUCUCAGAUUAACA	0.00392 ± 0.0052
UAGUGACAGUGGAAGAGAGAGAGUUAAACA	0.000409 ± 0.016
UUCAGUGUCACCUACUCUGAGAGAUUAACA	0.509 ± 0.033
UAGACUGUCACCUUCUCUGUCUGAUUAUGA	0.000549 ± 0.009
UAGUCUGUCACCUUCUCUCUCAGAUAUUGA	0.000896 ± 0.01
UAGUGACAGUGCUUCUCUGAGAGUUAACA	0.000181 ± 0.011

Sequence	pre-steady-state target cleavage rate
UUUACUGUCACCUUCUCUGAGAGAUUAACA	0.708 ± 0.026
UUCACUGGUCACCUUCUCUGAGAGAUUAACA	0.652 ± 0.034
UAGUGUGUCACCUUCUCUGACUGAUUAAGA	0.000461 ± 0.013
UAGUGACAGACCUUCUCUGAGAGAUUUUGA	0.00148 ± 0.0055
UAGUGACAGUCCAUCUCUGAGAGAUUAAGA	0.00133 ± 0.0048
UAGUGACAGUCCUUCUGACAGAGAUUAACA	0.000259 ± 0.02
UAGUGAGUGUGCUUCUCUGAGAGAUUUUGA	0.000204 ± 0.031
UAGUGACAGACCUUCUCUCAGAGAUUAAGA	0.00131 ± 0.0096
UAGUGACACACCUUCUCUGAGACUAUAAGA	0.00025 ± 0.028
UAGUCUGUCACCUUCUCUGAGUCAUUUUGA	0.00118 ± 0.0056
UUCACUGUCACCUUCUCACUGAGAUUAAGA	0.0025 ± 0.0046
UAGUGACUCACCUUCUCUCUCAGAUUAAGA	0.000475 ± 0.015
UACACUGUCCACCUUCUCUGAGAGAUUAACA	0.496 ± 0.038
AUCACUGUCAUCUUCUCUGAGAGAUUAACA	0.827 ± 0.041
UAGUGACAGUCCUUCAGUGAGAGAUUAACA	0.00142 ± 0.0078
UAGUGACAGUGCUUCACUGAGAGAUUAUCA	0.00301 ± 0.0042
UAGUGACAGUCCUUCUCUCUGAGAUUAAGA	0.00057 ± 0.011
AUCACUGUCACCUUCUCUGACAGAUUUUGA	0.004 ± 0.0045
UAGUGACAGUGGAAGAGAGAGAGAUAUUCA	0.00049 ± 0.013
AUCCUGUCACCUUCUCUGAGAGAUUAACA	0.744 ± 0.052
UACCACUGUCACCUUCUCUGAGAGAUUAACA	0.773 ± 0.044
UAGUCUGUCACCUUCUCUGUCUGAUUAACA	0.00112 ± 0.0067
UAGUGACACACCUUGUCUGAGAGAUUAUGA	0.00305 ± 0.0035

Sequence	pre-steady-state target cleavage rate
UAGUGACAGACGUUCUGUGAGAGAUUAACA	0.00265 ± 0.0051
UAGUGAGUCAGGUUCUCUGAGAGAUAUUGA	0.000862 ± 0.0092
AUGACUGUCACCAUCUCUGAGAGAUUAACA	0.817 ± 0.06
UAGACUGUCACCUUCUCUGAGGAGAUUAACA	0.00216 ± 0.0026
UAGUGACAGUGGAAGAGACAGAGAAUUAACA	0.000568 ± 0.01
UAGUGUGUGACCUUCUCUGAGAGAUAUUGA	0.00329 ± 0.0036
UAGUGACAGACCUUCUCUGAGACAUUUACA	0.00166 ± 0.0061
UAGUGACUCACCUUCUCUGAGUAGAUUAACA	0.00106 ± 0.012
UAGUGACAGUGGAACUCUGACUCUAAUUGA [g11:g16:cont:t1A]	0.00454 ± 0.0076
UAGUGAGAGACCUUCUCUGAGAGAUUUUGA	0.00232 ± 0.0059
UUCUCUGUCACCUUCUCUGAGAGUUUAACA	0.517 ± 0.07
UAGUGACAGACGUUGUCUGAGAGAUUAACA	0.00188 ± 0.0047
UAGUGACAGUCCUUCUCUGAAGAGAUUAACA	0.000286 ± 0.018
UAGUGACUCACCAAGUCUGAGAGAUAUUGA	< 0.0001
UAGUGACACACCUUCUCUGAGUGAUUAAGA	0.00194 ± 0.0052
UAGUGACAGACCUUCUCUGAGUGAUUAUCA	0.00325 ± 0.0062
UAGUGACUCACCUUCUCUGUGAGAUUUUGA	0.00148 ± 0.0047
UAGUGACAGUCCUUCUCUGACAGUUUAACA	0.000173 ± 0.014
AUCACUGAGACCUUCUCUGAGAGAUAUUGA	0.0157 ± 0.0047
UAGUGACAGACCUUCUCUCUGAGAUUAACA	0.000714 ± 0.011
UUCACUGUCACCUUCUCUGAGUAGAUUAACA	0.0213 ± 0.0063
UAGUGAGUCACCUUCACUCAGAGAUUAACA	0.0317 ± 0.0057

Given bar-delimited: part of the list above
Sequence | pre-steady-state target cleavage rate
UAGUGACAGACGUUCUGUGAGAGAUUAACA | 0.00265 ± 0.0051
UAGUGAGUCAGGUUCUCUGAGAGAUAUUGA | 0.000862 ± 0.0092
AUGACUGUCACCAUCUCUGAGAGAUUAACA | 0.817 ± 0.06
UAGACUGUCACCUUCUCUGAGGAGAUUAACA | 0.00216 ± 0.0026
UAGUGACAGUGGAAGAGACAGAGAAUUAACA | 0.000568 ± 0.01
UAGUGACAGACCUUCUCUGAGACAUUUACA | 0.00166 ± 0.0061
UAGUGAGAGACCUUCUCUGAGAGAUUUUGA | 0.00232 ± 0.0059
UUCUCUGUCACCUUCUCUGAGAGUUUAACA | 0.517 ± 0.07
UAGUGACAGUCCUUCUCUGAAGAGAUUAACA | 0.000286 ± 0.018
UAGUGACACACCUUCUCUGAGUGAUUAAGA | 0.00194 ± 0.0052
UAGUGACAGACCUUCUCUGAGUGAUUAUCA | 0.00325 ± 0.0062
UAGUGACUCACCUUCUCUGUGAGAUUUUGA | 0.00148 ± 0.0047
UAGUGACAGUCCUUCUCUGACAGUUUAACA | 0.000173 ± 0.014
UAGUGACAGACCUUCUCUCUGAGAUUAACA | 0.000714 ± 0.011
UUCACUGUCACCUUCUCUGAGUAGAUUAACA | 0.0213 ± 0.0063
UAGUGAGUCACCUUCACUCAGAGAUUAACA | 0.0317 ± 0.0057
